The other results are listed elsewhere or left out. The main result of the screen is listed elsewhere. These columns were measured beside it and carry no call. Compounds called inactive in the main read-out are mostly missing here. The note in brackets gives the kind of curve behind each potency; many fits are weak.
Assay: qHTS Assay for Lipid Storage Modulators in Drosophila S3 Cells;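 as to cell number change: cells counted by Cell Tracker Red CMTPX staining in the red channel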
Settings: BODIPY lipid droplet fluorescence, 18-24 h; for cell number change: measured here: cell count max response, cells fed with added oleic acid
Method in brief: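 Drosophila S3 cells loaded with oleic acid (400 uM, as added) and compounds at several concentrations; lipid droplets imaged by 488-nm laser-scanning cytometry, 500–530 nm intensity and object ratio to cell channel. Percent activity normalized to 20 uM Triacsin C.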

[1] = measured here: cell number channel AC50, cells fed with added oleic acid
[2] = measured here: lipid fluorescence (Fed channel) AC50, cells fed with added oleic acid

Structure (SMILES) | cell number change | AC50 [1] | AC50 [2]
Cc1nnc(SCCCn2c(N3CCCCC3)nc3c2c(=O)[nH]c(=O)n3C)s1 | 96.5% | 29.1 µM [rising, partial curve, poor fit] | 29.1 µM [rising, single point]
O=C(CN(C(=O)CNS(=O)(=O)c1ccc(F)cc1)c1ccccc1)NCc1ccco1 | 17.9% |  | 29.1 µM [rising, single point]
Cc1cc(C)cc(OCc2nnc(SCC(=O)c3ccc(Br)cc3)o2)c1 | -16.8% |  | 3.66 µM [rising, partial curve, poor fit]
Cc1ccc(C)c(S(=O)(=O)N2CCN(C(=O)CSC(=S)N3CCCC3)CC2)c1 | 19.1% | 3.66 µM [rising, single point] | 6.51 µM [rising, single point]
CCOc1ccc(-c2nc(N)ncc2Oc2cccc(OC)c2)c(O)c1 | -19.4% |  | 2.06 µM [rising, partial curve]
CC1=NOC2(C1)/C(=N/O)CCC/C2=N\O (centres undefined) | -12.6% |  | 1.64 µM [falling, full curve, poor fit]
Cc1c(C(=O)OCC(=O)N2CC(C)OC(C)C2)oc2ccc(Br)cc12 (centres undefined) |  |  | 32.6 µM [falling, single point]
Cc1occc1C(=O)NCc1ccc2c(c1)OCO2 | 13.2% |  | 16.4 µM [rising, partial curve]
O=C(O)CC(c1cccc(C(F)(F)F)c1)N1CCS(=O)(=O)CC1 (centres undefined) | 28.8% |  | 1.84 µM [rising, partial curve]
Cc1ccc(C)c(-c2nnc(NC(=O)Cc3ccccc3)o2)c1 | 27.4% |  | 29.1 µM [rising, single point]
COC(=O)c1sc(N2C(=O)C(O)=C(C(=O)c3ccc(C)o3)C2c2ccc(OC)c(OC)c2)nc1C (centres undefined) | 0.578% |  | 0.731 µM [falling, full curve, poor fit]
COc1ccc(-c2cn3c(C)c(C(=O)Nc4cccc(NC(C)=O)c4)sc3n2)cc1 | 34.8% | 20.6 µM [rising, partial curve] | 
CC(C)Cn1c(N)c(C(=O)NCc2cccs2)c2nc3ccccc3nc21 | -165% | 0.461 µM [falling, single point] | 
CC(OC(=O)Cn1c(C(F)(F)F)nc2ccccc21)C(N)=O (centres undefined) | -10.4% |  | 0.82 µM [rising, single point]
COc1ccc(C(C)=O)cc1CC(=O)Nc1ccc2c(c1)CCC2 | 23.4% |  | 4.11 µM [falling, single point]
COc1cccc(-c2nnc3sc(-c4cccs4)nn23)c1 | 0.197% |  | 5.17 µM [rising, partial curve]
CCC(C)NS(=O)(=O)c1ccc(NC(=O)c2ccc([N+](=O)[O-])cc2Cl)cc1 (centres undefined) | -20.6% |  | 16.4 µM [falling, single point]
Cc1ccc(NC(=O)C2CCN(C(=O)c3cccs3)CC2)c(C)c1 | 0.901% |  | 
COc1cc(C(=O)NCCCc2ccccc2)cc(OC)c1OC | -16.8% |  | 2.31 µM [rising, single point]
CC(C)CSc1nnc(N)s1 | -12.9% | 0.092 µM [rising, full curve, poor fit] | 

Structure (SMILES) | cell number change | AC50 [1] | AC50 [2]
COC(=O)C1(C(=O)OC)NOC2C(=O)N(c3ccccc3)C(=O)C21 (centres undefined) | -44% | 25.9 µM [falling, single point] | 5.17 µM [falling, full curve]
O=C(c1cccc(S(=O)(=O)N2CCCC2)c1)N1CCOCC1 | 0.987% |  | 3.66 µM [falling, single point]
COc1ccc(OCC(=O)NCCNC(=O)c2ccccn2)cc1 |  |  | 35.5 µM [rising, single point]
Cc1ccc(C(=O)N2CCN(c3cnn(C)c(=O)c3Cl)CC2)cc1 | -12.5% | 0.0731 µM [falling, full curve, poor fit] | 0.103 µM [falling, full curve, poor fit]
COc1ccc(Cl)cc1NC(=O)CCCN1C(=O)CCC1=O | 16.1% | 0.82 µM [falling, single point] | 23.1 µM [falling, single point]
O=S(=O)(N/N=C/c1ccc(F)cc1)c1ccccc1 | 10.3% |  | 0.231 µM [rising, single point]
COc1ccc(CN2CCNC(=O)C2CC(=O)N(C)Cc2nc(C)cs2)c(OC)c1 (centres undefined) | -25.7% |  | 6.51 µM [rising, single point]
CC(C)c1ccc(NC(=O)CNCC(c2ccccc2)N(C)C)cc1 (centres undefined) | 16% | 6.51 µM [falling, single point] | 6.51 µM [falling, partial curve, poor fit]
CC(C)c1nnc(NC(=O)C2CCCN2C(=O)Nc2ccc(F)cc2)s1 (centres undefined) | 3.42% |  | 29.1 µM [rising, single point]
O=C(C1CC1)N1CCC(c2nc(-c3ccc(S(=O)(=O)NCC4CCCO4)cc3)no2)CC1 (centres undefined) |  |  | 23.1 µM [falling, single point]
COc1cc(NC(=O)C2CCCN2S(=O)(=O)c2ccc3c(c2)CC(C)N3C(C)=O)cc(OC)c1 (centres undefined) | 8.06% |  | 
N#CC(Cc1ccccc1OC(F)F)c1nc2ccccc2[nH]1 (centres undefined) | 15% |  | 
CCC(C(=O)OC)n1cnc2scc(-c3ccc(C)cc3)c2c1=O (centres undefined) | -28% |  | 29.1 µM [falling, single point]
CCOCCCNC(=O)c1oc2ccc(S(=O)(=O)N3CCOCC3)cc2c1C |  |  | 29.1 µM [falling, single point]
COc1cc(C(=O)Nc2ccc(NC(=O)c3cccc(Cl)c3)nc2)cc(OC)c1OC | 25.4% |  | 
COc1cc(Cl)ccc1OCc1cc(C(=O)N(C)CC2CCCCO2)no1 (centres undefined) | 8.56% |  | 
CC(C(=O)NCc1ccco1)n1ccc2cc(S(=O)(=O)N3CCCCC3)ccc21 (centres undefined) |  |  | 6.51 µM [rising, single point]
CCOC(=O)CSc1nnc(-c2c[nH]c3ccccc23)n1CC | -74.1% | 18.4 µM [falling, partial curve] | 9.2 µM [falling, partial curve]
COc1ccc2c(Cl)c(C(=O)NCCc3ccc(S(N)(=O)=O)cc3)sc2c1 | 129% | 23.1 µM [rising, partial curve] | 
COc1ccc(CN(C2CCCC2)S(=O)(=O)c2ccc(-n3cnnn3)c(OC)c2)cc1OC | -41.6% | 20.6 µM [falling, single point] | 29.1 µM [falling, single point]

Entries of single compounds, quoted from the list.
`CC(C(=O)NCc1ccco1)n1ccc2cc(S(=O)(=O)N3CCCCC3)ccc21` (centres undefined) as listed: AC50 [2]: 6.51 µM [rising, single point]
`COc1ccc2c(Cl)c(C(=O)NCCc3ccc(S(N)(=O)=O)cc3)sc2c1` as listed: cell number change: 129%; AC50 [1]: 23.1 µM [rising, partial curve]

Two entries from above, set out differently.
Structure (SMILES),cell number change,AC50 [1],AC50 [2]
O=C(c1cccc(S(=O)(=O)N2CCCC2)c1)N1CCOCC1,0.987%,,"3.66 µM [falling, single point]"
COc1ccc(OCC(=O)NCCNC(=O)c2ccccn2)cc1,,,"35.5 µM [rising, single point]"

Following part:

Structure (SMILES) | cell number change | AC50 [1] | AC50 [2]
C=CCNc1nc2ccccc2nc1NS(=O)(=O)c1ccc(Cl)cc1 | -14.9% |  | 29.1 µM [falling, single point]
CCN(CC(=O)NCc1cccs1)C(=O)/C=C/c1ccc(OC)cc1OC |  |  | 2.91 µM [rising, partial curve, poor fit]
CCOCCCn1c(SCC(=O)Nc2cccc(S(=O)(=O)NC3=NCCCCC3)c2)nc2ccccc2c1=O | 2.45% | 0.116 µM [falling, full curve, poor fit] | 
COc1ccc(CCN2CC(C(=O)OCC(=O)NC(C)c3cccc(Cl)c3)CC2=O)cc1OC (centres undefined) | 5.91% |  | 8.2 µM [rising, partial curve]
O=C(Cc1ccc2ccccc2c1)Nc1ccccc1Br | 27.2% |  | 5.17 µM [rising, full curve]
COc1ccc(-c2noc(-c3ccccc3F)n2)cc1 | 103% | 0.231 µM [rising, single point] | 0.00517 µM [rising, full curve]
O=C(NCCN1CCN(c2ccccc2)CC1)c1cccn2c(=O)c3cc(Cl)ccc3nc12 | -15.5% |  | 0.58 µM [rising, single point]
Oc1ccccc1-c1cc(-c2ccc(Cl)cc2)n[nH]1 | -48.4% | 18.4 µM [falling, partial curve] | 18.4 µM [falling, partial curve]
COc1ccccc1C(=O)NNC(=O)C(=O)Nc1ccc(C)cc1 | 19% |  | 6.51 µM [falling, partial curve]
O=C(Nc1ccc(Cl)cc1)[C@@H]1[C@@H]2C(=O)N(c3ccc(Cl)cc3Cl)C(=O)[C@@H]2[C@H]2C=CC=NN21 | 55.6% | 23.1 µM [rising, single point] | 
CCCOc1ccccc1/C=C1\SC(N2CCCCC2)=NC1=O | -12.4% |  | 23.1 µM [falling, single point]
O=C(CN1C(=O)/C(=C/c2ccccc2Cl)SC1=S)NC1CCS(=O)(=O)C1 (centres undefined) | 5.28% |  | 
COCCCn1c(N)c(-c2nc3ccccc3n2C)c2nc3ccccc3nc21 | 12.6% |  | 
Cc1ccccc1COc1ccc(/C=C(\C#N)C(N)=O)cc1 | -53.8% |  | 
Cc1cccc(N2C(=O)SC(SC(=Nc3ccccc3)Nc3ccccc3)C2=O)c1 (centres undefined) | -33.3% | 0.58 µM [falling, partial curve, poor fit] | 0.291 µM [falling, full curve, poor fit]
CCN1CCC2(CC1)N=C(c1ccc(F)cc1)C(=S)N2C(=O)c1ccc(C(C)(C)C)cc1 | -67.4% | 10.3 µM [falling, partial curve] | 9.2 µM [falling, partial curve]
O=C(NCc1ccccc1)C(c1ccccn1)N(C(=O)c1csnn1)c1ccccc1F (centres undefined) | 9.24% |  | 
CCCCNc1ncnc2c1nnn2Cc1ccccc1Cl | 20.2% |  | 6.51 µM [rising, single point]
CCOc1cc(N2CCOCC2)c(OCC)cc1NC(=O)CN1C(=O)NC(CC(C)C)C1=O (centres undefined) | 6.26% |  | 

— PubChem BioAssay AID2685 (National Center for Advancing Translational Sciences (NCATS), 2010)
